{
  "source": "patent US5004565A",
  "about": "“Method and compositions providing enhanced chemiluminescence from 1,2-dioxetanes” (priority 1988, dated 1991)",
  "key": {"[1]": {"test": "Fluoride-triggered chemiluminescence of silyl-protected dioxetane"}, "[2]": {"test": "Base-triggered chemiluminescence in DMSO or water", "details": "for chemiluminescence quantum yield (ΦCl): base"}, "[3]": {"test": "Base-triggered chemiluminescence in aqueous CTAB micelles, with or without fluorescent co-surfactant"}, "[4]": {"system": "alkaline phosphatase from bovine intestinal mucosa", "test": "Triggering of 2c with alkaline phosphatase from bovine intestinal mucosa", "assay_type": "biochemical", "text": "The chemiluminescence quantum yield (.PHI.CL) for the decomposition of dioxetanes is defined as the ratio of einsteins of chemiluminescence emitted to moles of dioxetane decomposed. Sufficient energy is released during the reaction from the reaction enthalpy (ΔHR) plus the Arrhenius activation energy (Ea) to populate the singlet excited state of one of the carbonyl cleavage products. Therefore, the maximum quantum yield is 1.0. Another parameter of interest is the chemiexcitation quantum yield (.PHI.CE) which is defined as the ratio of excited states formed to dioxetane decomposed.\nThe same procedure as those employed in the measurement of the decay kinetics was used for the determination of chemiluminescence quantum yields with the following modifications. An accurately measured aliquot of a dioxetane stock solution of known concentration was added to 3 mL of the pre-thermostatted organic solvent or aqueous buffer. The reaction was then triggered by adding the appropriate chemical reagent or enzyme. The total light intensity was integrated by a photon-counting luminometer using an RCA A-31034A gallium-arsenide PMT cooled to -78° C.\n2. Triggering the Chemiluminescence of 2c with Alkaline Phosphatase from Bovine Intestinal Mucosa. Alkaline phosphatase from bovine intestinal mucosa was obtained from Sigma Chemical Co. as a suspension of 5.1 mg of protein per mL of 3.2 M (NH4)2 SO4 solution.\n3. […] Alkaline phosphatase experiments with dioxetane 2c were conducted at 37° C. with 3 mL of a solution containing: 2c (4.3×10^-5 M), 221 buffer (0.75 M, pH 9.1), Mg(OAc)2 (8.0×10^-4 M), CTAB (1.13×10^-3 M), and fluorescein surfactant 3 (5.6×10^-5 M). […]\nEnzymatic triggering experiments such as those described above were also carried out in Immumlon™ microtitre wells from Dynatech, Inc. made of transparent polystyrene. […] The chemiluminescence was detected at the bottom of the well using a fiber optic connected to the photon-counting luminometer described previously. […]"}, "[5]": {"details": "CTAB 1.5×10^-3 M with fluorescein surfactant 3 (9×10^-5 M), base, 37° C."}},
  "note": "Where a name gives a salt, the structure may show the parent alone.",
  "data": [
    {"smiles": "COC1(c2cccc(O[Si](C)(C)C(C)(C)C)c2)OOC12C1CC3CC(C1)CC2C3", "note": "(centres unmarked)", "values": [
      {"measurement": "efficiency for the formation of the singlet excited ester (singlet chemiexcitation)", "setting": "[1]; corrected for fluorescence quantum yield", "result": 57, "unit": "%"},
      {"measurement": "chemiluminescence efficiency", "setting": "[1]; fluoride-triggered", "result": 25, "unit": "%"},
      {"measurement": "chemiluminescence maximum", "setting": "[1]; fluoride-triggered, DMSO", "result": 470, "unit": "nm"}
    ]},
    {"smiles": "COC1(c2cccc(O)c2)OOC12C1CC3CC(C1)CC2C3", "note": "(centres unmarked) [dioxetane 2a, 4-(3-Hydroxyphenyl)-4-methoxyspiro[1,2-dioxetane-3,2'-adamantane]]", "values": [
      {"measurement": "emission maximum for the chemiluminescence", "setting": "[2]; DMSO, tetra-n-butylammonium hydroxide, room temperature", "result": 470, "unit": "nm"},
      {"measurement": "chemiluminescence quantum yield (ΦCl)", "setting": "[2]; DMSO", "result": 0.25}
    ]},
    {"smiles": "COC(=O)c1cccc(O)c1", "note": "[methyl 3-hydroxylbenzoate, methyl 3-hydroxybenzoate]", "values": [
      {"measurement": "fluorescence of cleavage product in water", "setting": "[2]; water", "result": "only weakly fluorescent"},
      {"measurement": "fluorescence quantum yield of the ester (ΦF)", "setting": "[1]; same conditions as fluoride-triggered decomposition", "result": 0.44}
    ]},
    {"smiles": "CCCCCCCCCCCCCCCCNC(=O)c1nc2ccc(O)cc2s1", "note": "[compound 4, 1-Hexadecyl-6-hydroxy-2-benzothiazamide]", "values": [
      {"measurement": "λmax of chemiluminescence", "setting": "[3]; benzothiazamide surfactant 4 as co-surfactant", "result": 506, "unit": "nm"}
    ]},
    {"smiles": "COC1(c2cccc(OC(C)=O)c2)OOC12C1CC3CC(C1)CC2C3", "note": "(centres unmarked) [dioxetane 2b]", "values": [
      {"measurement": "chemiluminescence quantum yield (ΦCl)", "setting": "[2]; DMSO", "result": 0.25},
      {"measurement": "chemiluminescence efficiency", "setting": "[3]; [5]", "result": 1.4, "unit": "%"},
      {"measurement": "chemiluminescence quantum yield (ΦCL)", "setting": "[3]; [5]", "result": 0.014},
      {"measurement": "chemiluminescence quantum yield (ΦCl)", "setting": "[3]; CTAB micelles above cmc, NaOH, 37° C., no fluorescer", "result": "1.7×10^-4"},
      {"measurement": "increase over the luminescence in the absence of CTAB and 3", "setting": "[3]; CTAB with fluorescein surfactant 3, base, 37° C.", "result": 500, "unit": "fold"},
      {"measurement": "increase in chemiluminescence quantum yield", "setting": "[3]; above the critical micelle concentration for CTAB, no fluorescer", "result": 19, "unit": "fold"}
    ]},
    {"smiles": "COC1(c2cccc(OP(=O)(O)O)c2)OOC12C1CC3CC(C1)CC2C3", "note": "(centres unmarked) [dioxetane 2c, 4-Methoxy-4-(3-phosphatephenyl)spiro[1,2-dioxetane-3,2'-adamantane], disodium salt]", "values": [
      {"measurement": "chemiluminescence quantum yield (ΦCl)", "setting": "[4]; with CTAB (1.13×10^-3), no fluorescer", "result": "2.1×10^-4"},
      {"measurement": "chemiluminescence quantum yield (ΦCl)", "setting": "[4]; with CTAB (1.13×10^-3 M) and fluorescein surfactant 3 (5.6×10^-5 M), pH 9.1, 37° C.", "result": 0.015},
      {"measurement": "chemiluminescence efficiency", "setting": "[4]; with CTAB and fluorescein surfactant 3", "result": 1.5, "unit": "%"}
    ]}
  ]
}
